Drawing on PMC7617965, “Interaction with AK2A links AIFM1 to cellular energy metabolism” (Molecular cell, 2025), this text covers binding for four molecules.

These are yes or no findings as the source states them, for the method shown. Binding can be weak; no strength is given. For some of these results: Binding seen in cells or lysates may run through a third protein. For some of these results: Where a sequence is shown, tags or fusion partners need not be part of it.

One assay has as its target T1, myc-MIC27 (UniProt Q6UXV4).
T1 sequence: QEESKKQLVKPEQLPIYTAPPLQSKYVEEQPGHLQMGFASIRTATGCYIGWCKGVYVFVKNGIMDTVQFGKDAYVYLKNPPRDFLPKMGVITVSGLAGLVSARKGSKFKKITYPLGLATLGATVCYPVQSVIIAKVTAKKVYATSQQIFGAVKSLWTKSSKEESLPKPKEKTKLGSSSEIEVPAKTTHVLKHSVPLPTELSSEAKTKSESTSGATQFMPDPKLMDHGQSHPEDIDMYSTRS
The assay is described as follows: co-IP; native lysis of HEK293 cells (100 mM sodium phosphate pH 8.0, 100 mM NaCl, 1% Triton X-100); IP of AIFM1-HA, of endogenous AIFM1 or of myc-tagged bait on an agarose matrix at 4°C; immunoblot. (Immunoblotting shows a protein as a band on a membrane.)

For another assay, the target named is AIFM1-HA (human) (UniProt O95831). The description is as above.
The target of assay [1] is endogenous AIFM1 (human (endogenous in HEK293)) (UniProt O95831). In words: SEC; native lysates of WT and AIFM1 KO HEK293 cells on Superdex 200; fractions of the AIFM1 complex region analysed by label-free proteomics. On the technique in general: SEC sorts molecules by how far they enter the pores of the column.
Assay [2] has the same target. In words: co-IP; native lysis of HEK293 cells (100 mM sodium phosphate pH 8.0, 100 mM NaCl, 1% Triton X-100); IP of AIFM1-HA, of endogenous AIFM1 or of myc-tagged bait on an agarose matrix at 4°C; immunoblot.
Assay [3] has the same target. In words: SEC; native lysates of HEK293 cells (WT, AIFM1 KO, AIFM1 KO with AIFM1-HA, AK2 KO with AK2A or AK2B; cycloheximide 4 h in one panel) on HiLoad 16/600 Superdex 200; fractions analysed by immunoblot, in part after a thiol shift with mmPEG24.
Assay [4] shares this target. The assay is described as follows: SEC; native lysates of WT HEK293 cells and of cells overexpressing MIA40 (MIA40 OE); pooled complex and monomer fractions, immunoblot.

For endogenous AIFM1 (from UniProt O95831), the binding result in the assay with myc-MIC27 is recorded as “binds”.

B1: CPOX, endogenous (enzyme, UniProt P36551 111-454)
chain: TSLGRPEEEEDELAHRCSSFMAPPVTDLGELRRRPGDMKTKMELLILETQAQVCQALAQVDGGANFSVDRWERKEGGGGISCVLQDGCVFEKAGVSISVVHGNLSEEAAKQMRSRGKVLKTKDGKLPFCAMGVSSVIHPKNPHAPTIHFNYRYFEVEEADGNKQWWFGGGCDLTPTYLNQEDAVHFHRTLKEACDQHGPDLYPKFKKWCDDYFFIAHRGERRGIGGIFFDDLDSPSKEEVFRFVQSCARAVVPSYIPLVKKHCDDSFTPQEKLWQQLRRGRYVEFNLLYDRGTKFGLFTPGSRIESILMSLPLTARWEYMHSPSENSKEAEILEVLRHPRDWVR
In the case of B1, the binding result with AIFM1-HA (human) is listed as “no binding”.

B2: MIA40, endogenous (protein, UniProt Q8N4Q1 1-142)
chain: MSYCRQEGKDRIIFVTKEDHETPSSAELVADDPNDPYEEHGLILPNGNINWNCPCLGGMASGPCGEQFKSAFSCFHYSTEEIKGSDCVDQFRAMQECMQKYPDLYPQEDEDEEEEREKKPAEQAEETAPIEATATKEEEGSS
For the molecule B2, the binding entry (in assay [1]; in the assay with AIFM1-HA (human); in assay [2]; in assay [3]) was “binds” throughout.

B3: MIA40 overexpressed in HEK293 cells (protein, UniProt Q8N4Q1 1-142)
chain: B2 chain
On to B3, for which the binding result in assay [4] is “binds”.
